Results of single-concentration screens

Measurements from “University of Dundee, Small-Polar-MMV Screening Library” (2021), ChEMBL document CHEMBL3988442.

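Growth of Mycobacterium tuberculosis over 3 days (7H9 medium with glucose and tyloxapol); the read-out is not stated. Compounds at 500 µM. The record gives no direction; compounds that gave an IC50 in retests scored well above the rest, so higher reads as more growth inhibition. Of about 18,000 compounds tested this way, about 1,400 (7.9%) reached 50% or more in at least one test.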

The filed quantity is “Percent Effect” (%). How 0% and 100% were set is not recorded. Most values in the screen are low, and negative values occur. Compounds were drawn at random from those tested, without regard to their results.

| SMILES | effect |
|---|---|
| `CNc1ccc(C(=O)NC(C)Cn2cccn2)cn1` (stereo not given) | 32.88% |
| `CN1CCCC(CCC(=O)NCCn2ccnc2)C1` (stereo not given) | 7.75% |
| `CC(C)(C)CC(=O)NC1(C)CCS(=O)(=O)C1` (stereo not given) | 2.205% |
| `CNCC(=O)Nc1cccc(OC)c1` | 18.87% |
| `CCc1noc(Cn2ccc3ncccc3c2=O)n1` | 19.38% |
| `COc1ccc(CCN)cc1F` | 52.69% |
| `CCOC(=O)C1(COC)CCCNC1` (stereo not given) | 1.849% |
| `CCc1nnc(N)o1` | -6.997% |
| `C1=C(CCNc2ncccn2)CCOC1` | -1.316% |
| `CN(C)Cc1ccccc1C(=O)N[C@@H]1CCOC[C@H]1O` | -2.874% |
| `O=C1CNc2ccncc2N1` | 9.91% |
| `Cc1cccc(CN(CCO)Cc2nccn2C)n1` | 2.558% |
| `CC(C)NC(=O)CN1CC(Oc2ccccc2F)C1` | 25.88% |
| `Cn1ccnc1CSCCN1CCOCC1` | 4.44% |
| `O=C(CNC(=O)N1CCC1)Nc1ccc(F)c(F)c1` | 30.41% |
| `CCN1CCN(C2CCNCC2)CC1` | -9.51% |
| `CC[C@H](N)C(=O)N1CCCC1CC(C)C` (stereo not given in full) | 24.07% |
| `CN(C)CCNc1oc(-c2ccccc2)nc1C#N` | 3.992% |
| `COC(=O)[C@@H]1C[C@@H](O)CN1Cc1cn2ccccc2n1` | -15.74% |
| `CCNC(=O)c1ccn(-c2ccccc2)n1` | 56.98% |
| `C[C@@]1(O)CCN(CCn2cc(Cl)cn2)C[C@@H]1O` | 1.199% |
| `Cc1noc(OCC(=O)Nc2ccccc2)n1` | 7.765% |
| `CC(C)(C)c1noc(CN2CCC(O)CC2)n1` | 13.16% |
| `Cc1nccn1CCNC(=O)C(C)(C)C` | -8.743% |
| `Cc1csc(NC(=O)Cn2ccc(=O)n(C)c2=O)n1` | 15.72% |
| `O=S(=O)(NCc1cccs1)C1CCOC1` (stereo not given) | 9.642% |
| `CS(=O)(=O)c1ccc(N2CCSCC2)c(S(C)(=O)=O)c1` | -11.88% |
| `CC(CNC(=O)NCc1ccncc1)N(C)C1CC1` (stereo not given) | 0.7607% |
| `CCNC(=O)c1ccc(-n2c(C)ccc2C)nc1` | 18.45% |
| `COCC(=O)NCCNS(=O)(=O)Cc1ccccc1` | 8.83% |
| `NCCCOCC1CCOC1` (stereo not given) | -7.798% |
| `O=C(NC1CCCC1)[C@@H]1CSCN1C(=O)C1CC1` | 2.453% |
| `NC(=O)C1CCN(CC(=O)NCC(F)(F)F)CC1` | -3.748% |
| `COCCCNCc1cccc(OC)c1OC` | 8.795% |
| `NCCC1CCN(C(=O)Nc2cc(F)cc(F)c2)CC1` | 32.63% |
| `C[C@@H]1CN(C(=O)CCc2cnccn2)C[C@]1(C)O` | -3.078% |
| `Cc1n[nH]/c(=N\C(=O)c2csc(NC3CC3)n2)s1` | 4.965% |
| `CNC(=O)c1sccc1N` | 13.43% |
| `CN(C)Cc1cccc(NC(=O)c2[nH]ncc2Br)c1` | 11.85% |
| `COc1ccc(CNC(=O)CCC2CCCO2)cn1` (stereo not given) | 52.84% |
| `CCCNC(=O)C(C)NC(=O)Cc1cccc(OC)c1` (stereo not given) | 27.53% |
| `OC(CN1CCn2ccnc2C1)c1cc(F)ccc1F` (stereo not given) | 9.767% |
| `CCNC(=O)C(C)NS(=O)(=O)c1ccc(OC)cc1` (stereo not given) | 12.05% |
| `CC(C)c1nnc(CN2C[C@@H]3CCC[C@H](C2)C(=O)N3)o1` | 6.074% |
| `CCC(CNC(=O)c1ccoc1)N1CCCC1` (stereo not given) | 25.55% |
| `COC1CCN(CC(=O)N(C)CC(F)(F)F)CC1` | 1.938% |
| `O=C(CSc1ccncc1)NCCn1cccc1` | 26.02% |

For reference, 4 entries once more:

SMILES,effect
C1=C(CCNc2ncccn2)CCOC1,-1.316%
CNc1ccc(C(=O)NC(C)Cn2cccn2)cn1 (stereo not given),32.88%
CS(=O)(=O)c1ccc(N2CCSCC2)c(S(C)(=O)=O)c1,-11.88%
CC(C)(C)c1noc(CN2CCC(O)CC2)n1,13.16%